Screen size: about 340,000 compounds; about 170 (0.05%) were called active. Inconclusive results, whose numbers are uncertain, are shown with a selection of clear calls. Calls follow the shape of the dose curve; as a rule, active = well fitted inhibition curve with a large enough effect in the signal ratio, with a control signal flat (not every such curve was filed as active); inconclusive = small, poorly fitted or top-dose-only effect, or effect the other way, or a change in a side signal; inactive = flat fitted curve, though single readings scatter; the % refers to the signal ratio. Potencies of inconclusive entries are doubtful fits and often do not repeat.
Experiment: qHTS Assay to Find Inhibitors of Chronic Active B-Cell Receptor Signaling;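 as to activity change, negative = inhibition: plate controls were basal doxycycline-induced cells for no effect and cells given 10 µM MG132 for full effect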
Details: ABC-DLBCL IkBa-CBG/CBR reporter, luminescence ratio (green luciferase fused to IkBa over red control in TMD8 lymphoma cells), 4 h; activity change, negative = inhibition: at 46.1 µM (top of the series)
Procedure, shortened: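 Doxycycline induced both beetle luciferases in TMD8 lymphoma cells; IKK-driven degradation limits the IkappaBalpha-fused green signal, while red luminescence normalises for cell number and nonspecific effects. Compounds tested up to 46 uM, 4 hrs.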
For `O=c1c2c(c(-c3ccccc3)nn1Cc1ccccc1)CCCC2`, the activity change, negative = inhibition was inconclusive: -4.46%. In the case of `O=C(CSc1nc2nc(-c3cccs3)cc(C(F)(F)F)c2c(=O)[nH]1)C(F)(F)F`, the activity change, negative = inhibition is reported as inconclusive: -5.02%. In the case of `Cc1cc(/C=N/NC(=O)c2cccc(F)c2)c(C)n1-c1ccccc1`, the Potency is reported as inconclusive: 28.2 µM [falling, single point]. With `Fc1cnc(N/N=C/c2ccc(-c3ccc(Br)cc3)o2)nc1N1CCOCC1` the activity change, negative = inhibition was inconclusive: -10.7%. With `COc1ccc(N=C2C(=O)Nc3c(C)cccc32)cc1` the activity change, negative = inhibition was inconclusive: -0.837%. With `COc1cccc(/C=N/Nc2nc(N3CCCC3)nc(N3CCCC3)n2)c1O` the activity change, negative = inhibition was inconclusive: 17.2%. In the case of `CCN1CCN(CCNC(=O)CSCc2nc(-c3ccc(OC)c(OC)c3)oc2C)CC1`, the activity change, negative = inhibition is reported as inconclusive: 5.05%. In the case of `CC(=O)c1ccc2c(c1)CC(C)C(=O)N2C` (centres undefined), the activity change, negative = inhibition is reported as inconclusive: -12.1%. With `COc1cc(NC(=O)c2ccccn2)cc(OC)c1OC` the activity change, negative = inhibition was “inactive”. In the case of `CC[C@]12c3[nH]c4ccc(OC)cc4c3CCN1C(=O)C(CC(=O)NCC13CC4CC(CC(C4)C1)C3)C[C@@H]2C(=O)N1CCN(C(=O)C2CC2)CC1` (some centres undefined), the Potency is reported as inconclusive: 32.6 µM [falling, partial curve, poor fit]. In the case of `O=C(NOCc1ccccc1)c1ccccc1`, the Potency is reported as inconclusive: 29.1 µM [falling, single point] and the activity change, negative = inhibition is reported as inconclusive: -13.5%. With `CCCSc1nsc(NC(=O)C(c2ccccc2)c2ccccc2)n1` the Potency was inconclusive: 3.26 µM [rising, partial curve, poor fit]. With `COc1ccc(-c2c3c(cc(C)[n+]2[O-])oc2ccc(OC)cc23)cc1` the activity change, negative = inhibition was “inactive”. With `COc1ccc(OCC(=O)NCC(c2ccc(OC)cc2)N2CCCCC2)cc1` (centres undefined) the activity change, negative = inhibition was “inactive”. For `Nc1ccc(O)cc1C(=O)OCC(=O)C12CC3CC(CC(C3)C1)C2`, the Potency was inconclusive: 31.6 µM [falling, single point]. With `Cn1c(Cl)c(/C=N/OC(=O)C(C)(C)C)c2ccccc21` the activity change, negative = inhibition was inconclusive: -2.16%. With `O=C(CSc1nc(-c2ccc(F)cc2)cs1)N1CCOCC1` the activity change, negative = inhibition was inconclusive: 1.5%. In the case of `CCN(C(=O)c1cc2c(s1)-c1ccccc1S(=O)(=O)C2)c1cc(OC)ccc1OC`, the activity change, negative = inhibition is reported as inconclusive: 7.47%. In the case of `O=C(NCCN1CCN(Cc2ccc([N+](=O)[O-])cc2)CC1)C(=O)Nc1ccccc1`, the activity change, negative = inhibition is reported as inconclusive: 2.29%. With `Cc1sc2nc(C(C)C)nc(SCC(=O)NCc3ccco3)c2c1C` the activity change, negative = inhibition was “inactive”. With `O=C(Nc1nccs1)C1(S(=O)(=O)c2ccc(Cl)cc2)CC1` the activity change, negative = inhibition was inconclusive: 0.459%. In the case of `O=C(CNC(=O)c1ccco1)NCC(=O)OCC(=O)c1ccc(Cl)c([N+](=O)[O-])c1`, the activity change, negative = inhibition is reported as inconclusive: 3.4%. For `O=c1[nH]c2ccccc2nc1-c1cccs1`, the activity change, negative = inhibition was “inactive”. With `CC(=O)c1sc(NCCOc2ccc(C)cc2)nc1C` the activity change, negative = inhibition was inconclusive: -1.55%. With `Cc1ccc(NC(=O)c2noc3c2CCCCC3)cc1C` the activity change, negative = inhibition was inconclusive: -5.69%. For `CCCOc1ccc(-c2nc(C#N)c(N3CCN(CC)CC3)o2)cc1`, the activity change, negative = inhibition was inconclusive: -1.05%. In the case of `C=CCNc1sc(C(=O)c2ccc(C)cc2)c(N)c1C#N`, the activity change, negative = inhibition is reported as “inactive”. For `CNC(=S)N/N=C(\C)c1ccc(Cl)s1`, the Potency was active: 16.4 µM. With `COc1cc2c(C(=O)NCCN(C)C)cn(CC(C)C)c(=O)c2cc1OC` the activity change, negative = inhibition was “inactive”. With `Cn1nc(-c2ccccc2)c2cc([N+](=O)[O-])ccc21` the activity change, negative = inhibition was inconclusive: 0.799%. With `Cc1nc2c(-c3ccc(F)cc3)cnn2c(N)c1-c1ccc(F)cc1` the activity change, negative = inhibition was inconclusive: -1.96%. In the case of `CCOc1cc(/C=N/Nc2nncc(-c3ccccc3)n2)ccc1O`, the activity change, negative = inhibition is reported as inconclusive: -0.0952%. For `Cc1cccc2c1-c1sc(C(=O)N3CCCCC3)cc1CO2`, the activity change, negative = inhibition was inconclusive: -27.3%. With `C=CCn1c(SCC(=O)Nc2ccc(Br)cc2)nc(O)c(CC)c1=O` the activity change, negative = inhibition was inconclusive: 13.9%. For `C/C(=N\NC(=O)c1c(C)nc2ccccn12)c1ccccc1F`, the activity change, negative = inhibition was “inactive”. With `COc1ccccc1N(CC(=O)Nc1ccc(C(F)(F)F)cc1)S(C)(=O)=O` the activity change, negative = inhibition was inconclusive: 1.27%. In the case of `CCN1C(=O)/C(=C/c2nc3ccccc3c(=O)[nH]2)c2ccccc21`, the activity change, negative = inhibition is reported as inconclusive: 0.188%. With `Cc1ccc2sc(C)[n+](CCO)c2c1` the activity change, negative = inhibition was “inactive”. In the case of `Cc1ccc(C)c(N2CCN(S(=O)(=O)c3ccc4c(c3)NC(=O)CS4)CC2)c1`, the activity change, negative = inhibition is reported as inconclusive: 4.39%. For `Cc1cccc(S(=O)(=O)CC(=O)Nc2nc(-c3ccccc3)cs2)c1`, the activity change, negative = inhibition was inconclusive: 8.64%. For `CCCCn1c(C)cc2c(c1=O)C1O[C@](c3ccsc3)(Cc3cc(OC)c(OC)cc31)O2`, the Potency was inconclusive: 3.16 µM [rising, single point]. In the case of `Cc1ccc(OCC(=O)Nc2ccc(N3CCN(S(C)(=O)=O)CC3)cc2)cc1C`, the activity change, negative = inhibition is reported as “inactive”. For `CCOCCCNC(=S)NCCCNc1nc2c(C)c(C)ccc2cc1C#N`, the activity change, negative = inhibition was inconclusive: -5.24%. For `C=CCn1c(SCC(=O)Nc2ccc3c(c2)OCO3)nnc1-c1ccccc1`, the activity change, negative = inhibition was “inactive”. For `CCCCC(CC)C1OCC(CN2CCCC2)O1` (centres undefined), the Potency was inconclusive: 6.31 µM [falling, single point]. For `CC(=O)c1sc(Nc2ccccn2)nc1C`, the Potency was inconclusive: 11.2 µM [falling, partial curve, poor fit]. For `COc1ccc(CN(C)CC(=O)Nc2cc(OC)c([N+](=O)[O-])cc2C)c(OC)c1`, the activity change, negative = inhibition was “inactive”. For `COc1ccc(S(=O)(=O)Nc2ccc(S(=O)(=O)Nc3ccc(F)cc3)cc2)cc1C`, the activity change, negative = inhibition was inconclusive: 14.2%. With `CCN(C(=O)CSc1nnc(-c2ccc(F)cc2)c2ccccc12)C1CCS(=O)(=O)C1` (centres undefined) the Potency was inconclusive: 22.4 µM [falling, single point]. For `NC(=S)Nc1ccc(Cl)c(Cl)c1`, the activity change, negative = inhibition was inconclusive: -8.48%. For `COc1ccc(C(=O)NCc2nnc(SCC(=O)N3CCc4ccccc43)o2)cc1OC`, the activity change, negative = inhibition was inconclusive: 3.35%. For `COc1ccc(C)cc1NC1=C(Cl)C(=O)N(C2CCCCC2)C1=O`, the activity change, negative = inhibition was “inactive”. For `Cn1c2ccccc2c2nnc(SCC(N)=O)nc21`, the activity change, negative = inhibition was inconclusive: -10.8%. In the case of `COc1cccc(OC)c1C(=O)Nc1ccc2c(c1)Cc1ccccc1-2`, the Potency is reported as inconclusive: 11.2 µM [falling, partial curve, poor fit]. In the case of `COc1cccc(-c2nnc(NC(=O)c3cccs3)s2)c1`, the Potency is reported as inconclusive: 3.55 µM [falling, partial curve]. In the case of `CCOC(=O)c1sc2nc(N3CCOCC3)c3c(c2c1N)CC(C(C)C)OC3` (centres undefined), the activity change, negative = inhibition is reported as “inactive”. In the case of `Cc1cc(C)c(C)c(OCC(O)CN2CCN(c3ccccn3)CC2)c1` (centres undefined), the activity change, negative = inhibition is reported as “inactive”. In the case of `COc1ccc(/C=N/NC(=O)c2ccncc2)cc1CSc1nc2ccccc2s1`, the activity change, negative = inhibition is reported as inconclusive: -9.06%. With `O=C(COC(=O)/C=C/c1ccccc1[N+](=O)[O-])NCc1ccco1` the activity change, negative = inhibition was “inactive”. With `COc1ccccc1CN1CCC(n2nccc2NC(=O)CCOc2ccccc2)CC1` the activity change, negative = inhibition was inconclusive: 1.77%. With `CSc1ccc(CN(C)C(=O)COc2ccc(C(=O)c3ccccc3)cc2)cc1` the Potency was inconclusive: 25.1 µM [falling, single point]. In the case of `COCCCN1C(=O)c2[nH]nc(-c3ccccc3O)c2C1c1ccc(Cl)cc1` (centres undefined), the activity change, negative = inhibition is reported as inconclusive: 5.03%. With `Cc1cccn2c(=O)c3cc(S(=O)(=O)c4ccc(Br)cc4)c(=N)n(C4CCCC4)c3nc12` the activity change, negative = inhibition was inconclusive: 7.49%. For `COc1ccc(/C=N/Nc2nn3cnnc3c3ccccc23)cc1`, the Potency was inconclusive: 15.8 µM [falling, single point]. With `Cc1ccc(Cn2ccc(NC(=O)c3cc(-c4cccs4)on3)n2)cc1` the activity change, negative = inhibition was inconclusive: -22.9%. For `Cc1cccc2sc(N(CCCN(C)C)C(=O)c3ccc4ncsc4c3)nc12`, the Potency was inconclusive: 12.6 µM [falling, single point]. With `COc1ccc(NC(=O)CSc2nc(SC)ns2)cc1` the activity change, negative = inhibition was inconclusive: -0.931%. With `COc1ccc(C(NCC(=O)Nc2c(C)cccc2C)c2ccccc2)cc1` (centres undefined) the activity change, negative = inhibition was inconclusive: 0.279%. For `COc1cc(OC)nc(Oc2ccc(N)c(C)c2)n1`, the activity change, negative = inhibition was inconclusive: 2.65%. With `CCOC(=O)c1sc(NC(=O)c2ccc(S(=O)(=O)N(C)C)cc2)nc1C` the activity change, negative = inhibition was inconclusive: -7.7%. With `Cc1cccc(NC(=O)CNC(=O)COC(=O)c2ccco2)c1C` the activity change, negative = inhibition was inconclusive: 1.09%. With `CCC1CCCCN1S(=O)(=O)c1ccc(NC(=O)c2cccs2)cc1` (centres undefined) the activity change, negative = inhibition was inconclusive: 19.7%. In the case of `CCN(CC)c1nc2ccccc2nc1C(=O)Nc1cc(OC)c(OC)c(OC)c1`, the Potency is reported as inconclusive: 12.6 µM [falling, single point]. For `Oc1c(CN2CCN(c3ccc(F)cc3)CC2)cc(Cl)c2cccnc12`, the activity change, negative = inhibition was inconclusive: -23.5%. In the case of `O=C(Nc1ccc2c(c1)N(Cc1ccccc1)C(=O)c1ccccc1S2)NC1CC1`, the activity change, negative = inhibition is reported as inconclusive: 22.1%. For `COc1cc(/C=N/Nc2snc(SC)c2C#N)ccc1O`, the activity change, negative = inhibition was inconclusive: -1.3%. For `CC(C)(C)c1ccc(OCC(=O)Nc2cccc(S(=O)(=O)NC3=NCCCCC3)c2)cc1`, the activity change, negative = inhibition was “inactive”. With `COc1ccc(C(=O)NC(=S)N2CCN(c3ccccc3OC)CC2)cc1` the activity change, negative = inhibition was inconclusive: 6.34%. In the case of `Cc1csc(NC(=O)c2ccc(S(C)(=O)=O)cc2)n1`, the Potency is reported as inconclusive: 7.08 µM [rising, partial curve, poor fit]. For `O=c1[nH]c(NCCCO)nc2c1C1(CCCC1)Cc1ccccc1-2`, the activity change, negative = inhibition was inconclusive: 13.1%. In the case of `CC1C(=O)C(C)(C)C(=O)OC1c1ccccc1` (centres undefined), the activity change, negative = inhibition is reported as “inactive”. For `CCN(CC)CCCn1c(C)cc2c(c1=O)C(c1ccccc1)C(C#N)=C(N)O2` (centres undefined), the activity change, negative = inhibition was “inactive”. With `COc1ccc(/C=C2\SC(=S)N(CCC(=O)N(CCO)Cc3ccccc3)C2=O)cc1OC` the Potency was inconclusive: 12.6 µM [falling, partial curve].
Potency is read from the fitted curve at half-maximal effect.
